Values are relative to the signal before dosing, not to a vehicle control; the signal also falls without drug.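 The tumor cells are basal-like or mesenchymal-like triple-negative breast cancer lines cultured without fibroblasts. Reduced red signal indicates lost mitochondrial integrity, serving as a proxy for apoptotic death.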
How the values were obtained:
[1] = system: HCC1143; assay: relative JC-1 red fluorescence (viability) vs pre-drug, monoculture (fraction); higher = more viable cancer cells; conditions: coculture fibroblast: none (monoculture)
Procedure: (§1)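 JC-1 labelled TNBC cells grown in monoculture (density kept equal with unlabelled cancer cells) in 384-well plates in FluoroBrite medium, treated with one of 42 anticancer drugs at 0.1, 1, 10 or 100 uM. JC-1 red fluorescence (mitochondrial integrity, surrogate of apoptotic death) was read by plate reader every 8 h for 72 h. Values are normalised to each well's pre-drug value, with background from alamethicin. The stock of one drug was tenfold lower, so its dose labels may be too high. Monoculture values are repeated alongside each fibroblast plate and are averaged here.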

[2] = system: Hs578T; assay: as above; conditions: coculture fibroblast: none (monoculture)
Procedure: as §1

CN(C)CCOc1ccc(/C(=C(/CCCl)c2ccccc2)c2ccccc2)cc1 [Toremifene]
relative JC-1 red fluorescence
Conditions	8 h	16 h	24 h	32 h	40 h	48 h	56 h	64 h	72 h
[1], 0.1 µM	0.91429	0.795	0.723	0.673	0.63	0.593	0.562	0.549	0.53
[1], 1 µM	0.9019	0.831	0.765	0.715	0.665	0.629	0.605	0.579	0.562
[1], 10 µM	0.9435	0.8923	0.8433	0.8035	0.7565	0.7022	0.6707	0.646	0.615
[1], 100 µM	0.355	0.266	0.227	0.181	0.138	0.113	0.0856	0.0605	0.0378
[2], 0.1 µM	0.8485	0.69	0.703	0.634	0.59	0.569	0.551	0.553	0.548
[2], 1 µM	0.868	0.77	0.718	0.655	0.62	0.588	0.568	0.568	0.554
[2], 10 µM	0.895	0.895	0.852	0.882	0.883	0.898	0.908	0.899	0.888
[2], 100 µM	0.442	0.333	0.314	0.213	0.16087	0.1211	0.0848	0.0589	0.0317

Source: the supplement of paper PMC6078165
